For one test, the system named is Sk-OV-3 (ovarian cancer). Kind of test: Resazurin cell viability assay, 96 h, Sk-OV-3. In kind it is cell-based, human. Particulars: read-out: IC50 (mean ± SEM) Sk-OV-3. The source says:
(§1) Cell viability was estimated with the resazurin assay. HaCaT human skin nonmalignant cells were used to study selectivity; these cells are derived from normal adult tissue and have a division rate similar to that of cancer cells.
(§2) Cell viability was estimated with the 3-(4,5-dimethylthiazol-2-yl)-2,5-diphenyltetrazolium bromide (MTT) assay or the resazurin assay. Both assays are redox-based colorimetric techniques based on the capability of viable cells to reduce the yellow product MTT or the blue reagent resazurin into a purple formazan dye or a pink-colored product, respectively. The number of live cells is directly proportional to the amount of the final product created. Exponentially growing cells were seeded in 96-well plates and were allowed to grow during 24 h. The cells were then treated with several concentrations of the tested compounds for 48–96 h (the incubation periods are specified in the figures and table legends) before measuring the cell viability using the MTT assay or the resazurin assay.
(§3) The OD of each well was measured at 540 and 620 nm on a multiwell plate spectrophotometer reader.
Background: Alamar Blue is a resazurin reagent that responds to reducing activity.

Test [1] concerns MDA-MB-231 (triple-negative breast cancer). Nature of the test: Resazurin cell viability assay, 96 h, MDA-MB-231. In kind it is cell-based, human. Particulars: read-out: IC50 (mean ± SEM) MDA-MB-231.
Text: as §1, §2, §3

In the case of `N.N.[Cl][Pt][Cl]` [Cisplatin], the IC50 (commonly the concentration that gives 50% inhibition) with Sk-OV-3 (ovarian cancer) is 4.3 ± 0.5 µM; in test [1] it was 10.2 ± 6.3 µM.

These data come from paper PMC8529873, “Carbohydrate-Based NK1R Antagonists with Broad-Spectrum Anticancer Activity” (Journal of Medicinal Chemistry, 2021).
